For 15 compounds, cell number change and AC50 results are on record in PubChem BioAssay AID2685 (National Center for Advancing Translational Sciences (NCATS), 2010).

In general, AC50 refers to the concentration at which the activity in the assay is half-maximal. Lower therefore signals greater potency.

This is one part of the list. Further columns of the screen follow, without active or inactive calls. The list favours compounds with an active or inconclusive main result. Potencies come from curve fits of mixed quality, noted in brackets.

A short description of this experiment: qHTS Assay for Lipid Storage Modulators in Drosophila S3 Cells.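 On cell number change: cells counted by Cell Tracker Red CMTPX staining in the red channel.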 Conditions: BODIPY lipid droplet fluorescence, 18-24 h; for cell number change: measured here: cell count max response, cells fed with added oleic acid. A digest of the protocol:
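Drosophila S3 cells got compounds at several concentrations plus oleic acid (400 uM solution). Laser-scanning cytometry with 488 nm excitation read lipid droplets at 500-530 nm and cells at 575-640 nm. Percent activity was relative to 20 uM Triacsin C.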
(qHTS replaces the single test concentration by a dilution series.)

Where [1] appears, read: measured here: lipid fluorescence (Fed channel) AC50, cells fed with added oleic acid.
The mark [2] stands for this setting: measured here: cell number channel AC50, cells fed with added oleic acid.

For `Cc1ccc(C(=O)COC(=O)c2c(C)cc(=O)oc2C)cc1[N+](=O)[O-]`, the cell number change worked out at 1.57%. In addition, the AC50 under setting [1] was 2.91 µM [rising, single point].
As to `CN1CC(=O)N(CC(=O)Nc2ccc(N(C)C)cc2)c2ccccc2C1=O`, the cell number change is 32.7%. The half-maximal activity concentration (AC50) under setting [2] is 16.4 µM [rising, single point].
Regarding `CCOC(=O)c1sc2ncn(/N=C/c3ccc(O)c(OC)c3)c(=O)c2c1C`, the cell number change is -12.7%. Under setting [1], the concentration at half-maximal activity (AC50) is 1.16 µM [falling, single point].
For the compound `CCOc1ccccc1NC(=O)N1CCN(S(C)(=O)=O)CC1`, the cell number change came to 24.7%. The half-maximal activity concentration (AC50) under setting [1] is 29.1 µM [rising, single point].
Regarding `CC(C)(C)c1ccc(OCCC(=O)OCC(=O)Nc2ccc(N3CCOCC3)cc2)cc1`, the cell number change was found to be 9.24%.
Regarding `O=C(O)c1ccc(OS(=O)(=O)c2cccc(C(F)(F)F)c2)cc1`, the cell number change was 27.1%. In addition, the AC50 under setting [1] was 9.2 µM [rising, partial curve].
For the compound `Cc1ccc(CNC(=O)Cn2ccc(NC(=O)OCc3ccccc3)nc2=O)o1`, the cell number change was -15.3%. For the same compound, the half-maximal activity concentration (AC50) under setting [2] was 4.11 µM [falling, partial curve, poor fit]. Further, the AC50 under setting [1] was 6.51 µM [falling, partial curve, poor fit].
In the case of `COc1ccc2oc(C(=O)NCc3cc(OC)c(OC)cc3OC)c(C)c2c1`, the AC50 under setting [2] is 0.00461 µM [rising, full curve, poor fit] and the AC50 under setting [1] is 1.16 µM [falling, single point].
With `CC(=O)Nc1ccc(NC(=O)Cn2c(=O)n(-c3ccccc3)c(=O)c3oc4ccccc4c32)cc1`, the AC50 under setting [1] is 6.51 µM [falling, single point].
Regarding `COc1ccc(C2=NOC3(CC(=O)N(c4ccc(C)cc4)C3=O)C2)cc1` (stereo not given), the cell number change is 0.119%.
Consider `Cn1nc(NC(=O)C(F)(F)F)c2ncc(-c3ccc(Cl)cc3)nc21`, for which the cell number change is 0.434%. Moreover, the AC50 under setting [1] is 0.0651 µM [rising, full curve, poor fit].
For `CCc1nc(Nc2cccc(O)c2)c2oc3ccccc3c2n1`, the cell number change is -6.34%. Under setting [1], the AC50 is 0.58 µM [falling, single point].
On to `COc1ccc(C2(C(=O)NCCN3CCOCC3)CCOCC2)cc1`, for which the cell number change was -14.9%. In addition, the AC50 under setting [1] was 0.0206 µM [falling, full curve, poor fit].
`COCCNC(=O)CN(c1cc(Cl)ccc1OC)S(=O)(=O)c1ccc(C)c([N+](=O)[O-])c1`: the cell number change was -32.1%. In addition, the AC50 under setting [2] is 29.1 µM [falling, single point]. The concentration at half-maximal activity (AC50) under setting [1] was 29.1 µM [falling, single point].
As to `COc1ccc(NC(=O)CN2C(=O)C(C)Oc3ccccc32)cc1` (stereo not given), the cell number change was -37.7%. The AC50 under setting [2] was 1.3 µM [falling, full curve, poor fit]. In addition, the half-maximal activity concentration (AC50) under setting [1] was 3.66 µM [rising, single point].
